# PubChem BioAssay AID1259297 | Sanger Institute, 2017
# Assay: 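Kinase knock-downs that lower colorectal cancer cell viability or act with drugs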 (primary screen)
# Cell system: human RCM1 colorectal cancer cell line
# Reagent: siRNA pool against human genes
# Challenge: separate arms: DMSO vehicle, or one anchor drug at a mild dose: BYL719 1 µM, cetuximab 5 µg/ml, trametinib 10 nM
# Measured: 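Viability per well relative to a non-targeting pool, mean of replicates; robust z-score for knock-down alone; synergy score with BYL719, cetuximab or trametinib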
# Scale: viability z-score, knock-down alone: higher = more viable cells than non-targeting controls
# Active means: 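Essential when the viability robust z-score for knock-down alone is below -3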
# Calls: active = essential when knocked down alone; inactive = no clear loss of viability alone
# The whole screen tested 794 reagents; this is a random part of them. Of all reagents, 13 (1.6%) got an active call. 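Calls reflect knock-down without drug only; drug synergy is judged separately, with scores above 0.15 counted as synergy.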 Further read-outs or replicates are left out here. Reagent sequences are not shown. Not stated in the record: the amount of reagent, the time to read-out.
target,"viability z-score, knock-down alone",call
MAP3K13,0.194,inactive
NTN4,-1.25,inactive
TK2,0.9,inactive
BMPR1A,-0.837,inactive
TGFBR1,0.206,inactive
PAK5,0.223,inactive
BCR,-0.913,inactive
SYNCRIP,-0.292,inactive
SRP72,-1.61,inactive
PGK2,0.513,inactive
PKIA,-0.139,inactive
IRAK4,-1.07,inactive
PRKAG2,0.9,inactive
PKN2,-0.613,inactive
RPS6KC1,0.9,inactive
PEAK1,-0.166,inactive
GNAS,-2.52,inactive
ITPKA,0.152,inactive
FGR,-0.349,inactive
BTK,0.9,inactive
SPHK2,-0.0817,inactive
FN1,0.9,inactive
NUCKS1,0.855,inactive
SLK,0.9,inactive
AAK1,-2.1,inactive
FBXW7,0.9,inactive
CDKL3,0.134,inactive
PRKAB1,-2.53,inactive
CDC7,-1.09,inactive
CAMK2D,0.9,inactive
PNKP,-0.325,inactive
DMPK,0.613,inactive
FER,-0.0188,inactive
CALM3,-0.928,inactive
